The supplement of paper PMC11060735
Several values for one entry are separate records, joined by “and”; a condition that tells them apart may be missing. Equal values may be shown once. Where a name gives a salt, the structure may show the parent alone. In all, about 1,800 compounds were measured (“GFP- (p16Ink4a-) cell count relative to negative-control wells”: median about 0.99, lowest 2% from about 0.5 on). This is one part of the list.

test system: mouse p16Ink4a+/- lung fibroblasts (INKBRITE, bleomycin-injured); assay: GFP- (p16Ink4a-) cell count relative to negative-control wells (fold of vehicle); higher = more p16Ink4a- cells surviving; conditions: 1 µM; 3 days

Structure (SMILES) | GFP-
CS(=O)(=O)Nc1ccc([N+](=O)[O-])cc1Oc1ccccc1 [Nimesulide] | 1.05
Cc1ccc(-c2nn(C(C)(C)C)c3ncnc(N)c23)cc1 [1-Ter-Butyl-3-P-Tolyl-1h-Pyrazolo[3,4-D]Pyrimidin-4-Ylamine] | 0.803
Cc1ccc(S(=O)(=O)/C=C/C#N)cc1 | 0.854
CCCCOc1cc(C(=O)OCCN(CC)CC)ccc1N [Oxybuprocaine] | 1.07
O=C(O)c1ccccc1O [Salicylic Acid] | 0.955
CC(C)(F)C[C@H](N[C@@H](c1ccc(-c2ccc(S(C)(=O)=O)cc2)cc1)C(F)(F)F)C(=O)NC1(C#N)CC1 [Odanacatib] | 1.03
COC(=O)[C@H](c1ccccc1Cl)N1CCc2sccc2C1 [Clopidogrel] | 1.11
CN1c2ccccc2C(=O)N2CCc3c([nH]c4ccccc34)C21 (centres undefined) [Evodiamine] | 0.832
Cn1nnc2c(C(N)=O)ncn2c1=O [Temozolomide] | 0.853
C[C@H]1c2cccc(O)c2C(=O)C2=C(O)[C@]3(O)C(O)=C(C(N)=O)C(=O)[C@@H](N(C)C)[C@@H]3[C@@H](O)[C@@H]21 [Doxycycline] | 1.06 and 0.893
Nc1ccc(C(=O)O)c(O)c1 [Aminosalicylic Acid] | 0.978
CC(=O)Oc1cc2c(s1)CCN(C(C(=O)C1CC1)c1ccccc1F)C2 (centres undefined) [Prasugrel] | 0.995
CN(C)CCCN1c2ccccc2Sc2ccc(Cl)cc21 [Chlorpromazine Hydrochloride, Chlorpromazine] | 0.892
CN(C)CCN(Cc1ccccc1)c1ccccn1 [Tripelennamine] | 1.09
COc1c2ccoc2cc2oc(=O)ccc12 [Bergapten] | 1.08
Cc1ccc(S(=O)(=O)OCC(=O)Nc2ccc(C(=O)O)c(O)c2)cc1 | 0.999
CNC(=O)c1c(F)cccc1Nc1nc(Nc2cc3c(cc2OC)CCN3C(=O)CN(C)C)nc2[nH]ccc12 | 0.935
O=C(O)Cn1nnc(-c2cc(N3CCC(Oc4cc(F)ccc4Br)CC3)no2)n1 | 0.978
OCC(CO)N[C@H]1C[C@](O)(CO)[C@@H](O)[C@H](O)[C@H]1O [Voglibose] | 0.91
O=C1NC(=O)/C(=C/c2ccc(-c3ccc(F)cc3O)o2)S1 | 0.787
CCc1cc2c(cc1CC)CC(NC[C@H](O)c1ccc(O)c3nc(O)ccc13)C2 [Indacaterol] | 1.11
C[C@H](Cc1cc2c(c(C(N)=O)c1)N(CCCO)CC2)NCCOc1ccccc1OCC(F)(F)F [Silodosin] | 0.647
CCOC(=O)c1ccc(NC2CCCCC2)c(N)c1 [Ferrostatin-1 (Fer-1)] | 0.811
Oc1ccnc(O)n1 [Uracil] | 1.02

A different layout for part of the listing above.

| Structure (SMILES) | GFP- |
| --- | --- |
| CN(C)CCN(Cc1ccccc1)c1ccccn1 [Tripelennamine] | 1.09 |
| COc1c2ccoc2cc2oc(=O)ccc12 [Bergapten] | 1.08 |
